Data as given in PubChem BioAssay AID504793 (Drosophila RNAi Screening Center, 2011)

- Screen: 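Knock-downs allowing continued mitosis even though DNA is damaged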 (primary screen)
- Cell system: Drosophila S2R+ cells
- Reagent: long dsRNA against Drosophila genes, about 0.25 µg dsRNA per well
- Timing: 4 days of dsRNA, then 4 hours of drug before read-out
- Challenge: doxorubicin 0.5 µM for 4 hours to cause double-strand breaks, in cells also given a low, harmless dose of dsRNA against nbs to sensitise the assay
- Measurement: 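Mitotic index as the number of phospho-histone H3-positive cells in each well following doxorubicin, given as raw counts without normalisation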
- Direction: mitotic cells: higher = more cells in mitosis, weaker G2 arrest
- Call rule: 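Genes are called active only when high mitotic counts were reproduced with independent dsRNAs and mitosis was checked for delay without damage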
- Meaning of the calls: active = confirmed in follow-up tests; inactive = not confirmed
The screen tested about 23,000 reagents; below is a random part of those that have a named target and a result. In the full data, 62 (0.27%) got an active call. 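Calls come from follow-up tests whose scores are not deposited, so confirmed genes may have low counts here; counts are not normalised per plate.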 Raw values are not corrected between plates. Reagents against one gene are numbered here. A plus sign joins genes that one reagent is predicted to hit.

Mst98Ca (Male-specific RNA 98Ca) gave mitotic cells, replicate 1 = 8; inactive. Against CRAT (Carnitine O-Acetyl-Transferase) #1 the deposit lists mitotic cells, replicate 1 = 3; inactive. Silencing of CRAT (Carnitine O-Acetyl-Transferase) #2 gave: mitotic cells, replicate 1 = 1; inactive. After knock-down of Indy-2 + CG33934 #1, the screen gave mitotic cells, replicate 1 = 10; inactive. Indy-2 + CG33934 #2 showed mitotic cells, replicate 1 = 9; inactive. Snoo (Sno oncogene) #1 scored mitotic cells, replicate 1 = 5; inactive.

After knock-down of Snoo (Sno oncogene) #2, the screen gave mitotic cells, replicate 1 = 3; inactive. Knock-down of Ret (Ret oncogene) #1 gave: mitotic cells, replicate 1 = 5; inactive. For Ret (Ret oncogene) #2 the deposit lists mitotic cells, replicate 1 = 5; inactive. Depletion of CG14034 came out at: mitotic cells, replicate 1 = 7; inactive. Against CG10481, the entry reads mitotic cells, replicate 1 = 11; inactive. Cyp9b2 (Cytochrome P450 9b2) #1 gave mitotic cells, replicate 1 = 5; inactive.

With knock-down of Cyp9b2 (Cytochrome P450 9b2) #2, the screen gave mitotic cells, replicate 1 = 4; inactive. With knock-down of Polr3I (RNA polymerase III subunit I), the screen gave mitotic cells, replicate 1 = 3; inactive. With knock-down of CG1632 #1, the record shows mitotic cells, replicate 1 = 9; inactive. For CG1632 #2, the values are mitotic cells, replicate 1 = 7; inactive. After knock-down of CG13937, the screen gave mitotic cells, replicate 1 = 10; inactive. hfw (halfway) #1 showed mitotic cells, replicate 1 = 10; inactive.

Against hfw (halfway) #2 the deposit lists mitotic cells, replicate 1 = 11; inactive. Knock-down of CG12851 resulted in: mitotic cells, replicate 1 = 8; inactive. superdeath (Suppressor of ER stress-induced death) #1 showed mitotic cells, replicate 1 = 12; inactive. For superdeath (Suppressor of ER stress-induced death) #2, the values are mitotic cells, replicate 1 = 4; inactive. Knock-down of CG6769 resulted in: mitotic cells, replicate 1 = 9; inactive. Against ND-24 (NADH dehydrogenase (ubiquinone) 24 kDa subunit), the entry reads mitotic cells, replicate 1 = 4; inactive.

CR30409 (pseudo) gave mitotic cells, replicate 1 = 13; inactive. CR18217 (pseudo) scored mitotic cells, replicate 1 = 9; inactive. Depletion of Mur2B (Mucin related 2B) #1 came out at: mitotic cells, replicate 1 = 6; inactive. Mur2B (Mucin related 2B) #2 showed mitotic cells, replicate 1 = 12; inactive. Depletion of CG10280 #1 resulted in: mitotic cells, replicate 1 = 7; inactive. CG10280 #2 gave mitotic cells, replicate 1 = 6; inactive.

Knock-down of CG13160 resulted in: mitotic cells, replicate 1 = 8; inactive. CG15719 gave mitotic cells, replicate 1 = 8; inactive. lace scored mitotic cells, replicate 1 = 11; inactive. Cpr62Bc (Cuticular protein 62Bc) #1 gave mitotic cells, replicate 1 = 4; inactive. For Cpr62Bc (Cuticular protein 62Bc) #2, the entry reads mitotic cells, replicate 1 = 1; inactive. Depletion of CG32017 came out at: mitotic cells, replicate 1 = 19; inactive.

Silencing of CG1208 came out at: mitotic cells, replicate 1 = 9; inactive. With knock-down of Abl (Abl tyrosine kinase) #1 the results were mitotic cells, replicate 1 = 7; inactive. Abl (Abl tyrosine kinase) #2 showed mitotic cells, replicate 1 = 7; inactive. Against CG11703 #1 the deposit lists mitotic cells, replicate 1 = 6; inactive. For CG11703 #2, the entry reads mitotic cells, replicate 1 = 9; inactive. After knock-down of Tep5Psi (Thioester-containing protein 5 pseudogene) #1 the results were mitotic cells, replicate 1 = 5; inactive.

Against Tep5Psi (Thioester-containing protein 5 pseudogene) #2, the values are mitotic cells, replicate 1 = 3; inactive.

Entries above whose gene name starts with T or t:
Tep5Psi (Thioester-containing protein 5 pseudogene) #1 | mitotic cells, replicate 1: 5; Call: inactive
Tep5Psi (Thioester-containing protein 5 pseudogene) #2 | mitotic cells, replicate 1: 3; Call: inactive
